Test results from US20250108090A1.
No constants are given. Whether binding was seen depends on the method and setting. Some results given as binding are weak or reduced against the parent protein; the word gives no strength. Where a sequence is shown, tags or fusion partners need not be part of it.

B1: mouse apoptosis inhibitor of macrophage (AIM), wild-type recombinant (protein, UniProt Q9QWK4 22-352, looked up)
chain: ESPTKVQLVGGAHRCEGRVEVEHNGQWGTVCDDGWDRRDVAVVCRELNCGAVIQTPRGASYQPPASEQRVLIQGVDCNGTEDTLAQCELNYDVFDCSHEEDAGAQCENPDSDLLFIPEDVRLVDGPGHCQGRVEVLHQSQWSTVCKAGWNLQVSKVVCRQLGCGRALLTYGSCNKNTQGKGPIWMGKMSCSGQEANLRSCLLSRLENNCTHGEDTWMECEDPFELKLVGGDTPCSGRLEVLHKGSWGSVCDDNWGEKEDQVVCKQLGCGKSLHPSPKTRKIYGPGAGRIWLDDVNCSGKEQSLEFCRHRLWGYHDCTHKEDVEVICTDFDV
B2: human apoptosis inhibitor of macrophage (AIM) (protein)
chain: SPSGVRLVGGLHRCEGRVEVEQKGQWGTVCDDGWDIKDVAVLCRELGCGAASGTPSGILYEPPAEKEQKVLIQSVSCTGTEDTLAQCEQEEVYDCSHDEDAGASCENPESSFSPVPEGVRLADGPGHCKGRVEVKHQNQWYTVCQTGWSLRAAKVVCRQLGCGRAVLTQKRCNKHAYGRKPIWLSQMSCSGREATLQDCPSGPWGKNTCNHDEDTWVECEDPFDLRLVGGDNLCSGRLEVLHKGVWGSVCDDNWGEKEDQVVCKQLGCGKSLSPSFRDRKCYGPGVGRIWLDNVRCSGEEQSLEQCQHRFWGFHDCTHQEDVAVICSG

Key:
[1] = molecular target: T1, mouse PRDX4 with a HA tag (generated in house) (mouse) (UniProt O08807); assay: ELISA, DAMP coated at 2 µg/mL, AIM in solution (FIG. 4)
T1 sequence (looked up): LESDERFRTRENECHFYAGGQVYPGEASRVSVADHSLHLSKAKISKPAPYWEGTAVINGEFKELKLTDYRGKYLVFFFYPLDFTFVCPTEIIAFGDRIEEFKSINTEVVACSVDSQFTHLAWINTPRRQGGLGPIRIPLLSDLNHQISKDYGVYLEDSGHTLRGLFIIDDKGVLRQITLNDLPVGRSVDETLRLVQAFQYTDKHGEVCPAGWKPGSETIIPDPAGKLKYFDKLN

[2] = molecular target: T2, mouse PRDX5 with a HA tag (generated in house) (mouse) (UniProt P99029); assay: as above
T2 sequence (looked up): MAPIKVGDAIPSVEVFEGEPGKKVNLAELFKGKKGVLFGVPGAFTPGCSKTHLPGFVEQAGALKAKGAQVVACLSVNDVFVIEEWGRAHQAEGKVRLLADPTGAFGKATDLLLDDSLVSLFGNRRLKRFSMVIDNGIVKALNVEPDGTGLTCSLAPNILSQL

[3] = molecular target: T3, mouse PRDX3 with a HA tag (generated in house) (mouse) (UniProt P20108); assay: as above
T3 sequence (looked up): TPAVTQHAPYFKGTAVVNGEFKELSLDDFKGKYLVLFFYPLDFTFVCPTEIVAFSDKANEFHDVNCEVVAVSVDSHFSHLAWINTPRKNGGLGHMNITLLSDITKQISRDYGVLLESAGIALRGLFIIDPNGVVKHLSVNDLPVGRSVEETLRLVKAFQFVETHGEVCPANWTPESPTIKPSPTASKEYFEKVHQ

[4] = molecular target: T4, human PRDX1-His (NBC118543, Novus Biologics) (human) (UniProt Q06830); assay: ELISA, DAMP coated at 2 µg/mL, AIM in solution (FIG. 3A)
T4 sequence (looked up): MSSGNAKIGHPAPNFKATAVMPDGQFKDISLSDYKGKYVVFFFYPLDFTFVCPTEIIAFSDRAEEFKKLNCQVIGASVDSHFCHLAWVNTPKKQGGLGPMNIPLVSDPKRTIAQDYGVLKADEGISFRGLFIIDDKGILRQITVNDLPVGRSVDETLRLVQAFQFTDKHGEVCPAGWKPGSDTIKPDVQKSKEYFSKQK

Binder	binding [1]	binding [2]	binding [3]	binding [4]
B1	binds	binds	binds	–
B2	–	–	–	binds
